Experimental findings from publication PMC8891362 are described below.

By UniProt entry, the sequences of proteins in these tests, tags left out. Residues count along the entry.
UniProt P08581, residues 25-1390: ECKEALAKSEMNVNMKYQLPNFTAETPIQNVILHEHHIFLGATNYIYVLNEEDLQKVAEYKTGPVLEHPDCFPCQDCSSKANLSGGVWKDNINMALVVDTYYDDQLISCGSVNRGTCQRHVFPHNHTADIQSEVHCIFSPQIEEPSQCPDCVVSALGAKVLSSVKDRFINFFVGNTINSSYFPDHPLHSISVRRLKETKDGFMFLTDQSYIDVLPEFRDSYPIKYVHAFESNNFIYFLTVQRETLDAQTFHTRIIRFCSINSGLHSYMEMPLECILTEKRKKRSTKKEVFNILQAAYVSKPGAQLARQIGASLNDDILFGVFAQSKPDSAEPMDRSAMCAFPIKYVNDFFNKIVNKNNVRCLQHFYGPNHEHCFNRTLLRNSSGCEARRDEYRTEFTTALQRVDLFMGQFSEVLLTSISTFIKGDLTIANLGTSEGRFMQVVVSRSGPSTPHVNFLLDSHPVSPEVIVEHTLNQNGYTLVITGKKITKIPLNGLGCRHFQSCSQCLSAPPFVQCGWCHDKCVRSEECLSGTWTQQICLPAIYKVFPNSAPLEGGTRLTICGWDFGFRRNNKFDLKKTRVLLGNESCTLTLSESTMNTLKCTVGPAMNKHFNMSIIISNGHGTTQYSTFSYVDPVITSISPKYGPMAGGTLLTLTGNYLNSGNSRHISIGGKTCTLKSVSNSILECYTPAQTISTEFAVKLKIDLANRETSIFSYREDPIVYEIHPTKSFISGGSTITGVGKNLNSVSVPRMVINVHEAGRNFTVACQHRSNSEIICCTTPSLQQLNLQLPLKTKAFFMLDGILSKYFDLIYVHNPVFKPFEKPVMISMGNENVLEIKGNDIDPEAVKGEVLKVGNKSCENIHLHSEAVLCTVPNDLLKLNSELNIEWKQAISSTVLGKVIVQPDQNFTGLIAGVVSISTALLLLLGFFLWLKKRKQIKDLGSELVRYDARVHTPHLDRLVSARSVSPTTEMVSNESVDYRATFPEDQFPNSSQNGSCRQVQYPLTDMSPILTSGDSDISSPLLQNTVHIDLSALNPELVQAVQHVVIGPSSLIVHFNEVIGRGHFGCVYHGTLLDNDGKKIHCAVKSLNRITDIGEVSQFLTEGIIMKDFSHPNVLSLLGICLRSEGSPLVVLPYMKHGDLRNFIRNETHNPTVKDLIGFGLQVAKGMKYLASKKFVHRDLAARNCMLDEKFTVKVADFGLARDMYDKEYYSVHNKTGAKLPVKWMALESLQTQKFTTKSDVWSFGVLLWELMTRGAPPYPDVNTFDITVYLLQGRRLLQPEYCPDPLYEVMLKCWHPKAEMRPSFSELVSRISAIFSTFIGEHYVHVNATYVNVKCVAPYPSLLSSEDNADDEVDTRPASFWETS

The experiment concerns the target c-MET (human (endogenous in Hep3B)) (UniProt P08581). Put plainly: co-IP; Hep3B cells; endogenous c-MET and Flag-tagged MUC15 were immunoprecipitated; details of the method in the supplement.

Results are given in words; binding and its absence hold for the method and conditions named. In cells and extracts the contact can be indirect. Some entries that bind do so weakly or less than the wild type. Sequences can lack the tags named with a protein.

B1: Mucin 15 (MUC15), Flag-tagged (protein, UniProt Q8N387 24-334)
chain: KENQDINTTQNIAEVFKTMENKPISLESEANLNSDKENITTSNLKASHSPPLNLPNNSHGITDFSSNSSAEHSLGSLKPTSTISTSPPLIHSFVSKVPWNAPIADEDLLPISAHPNATPALSSENFTWSLVNDTVKTPDNSSITVSILSSEPTSPSVTPLIVEPSGWLTTNSDSFTGFTPYQEKTTLQPTLKFTNNSKLFPNTSDPQKENRNTGIVFGAILGAILGVSLLTLVGYLLCGKRKTDSFSHRRLYDDRNEPVLRLDNAPEPYDVSFGNSSYYNPTLNDSAMPESEENARDGIPMDDIPPLRTSV
As for B1, the binding result is “binds”.
